The results in this text go back to PubChem BioAssay AID901 (National Center for Advancing Translational Sciences (NCATS), 2007).

This is one part of the list. The main result of the screen is listed elsewhere. These columns were measured beside it and carry no call. Most of these compounds were active or inconclusive in the main read-out, so they are no random draw. Potencies come from curve fits of mixed quality, noted in brackets.

This experiment can be described thus: qHTS Assay for Identifying the Cell-Membrane Permeable IMPase Inhibitors. The conditions noted are these: CHO-M1 cells, IP1 accumulation, HTRF TR-FRET ratio; measured here: donor channel 620 nm AC50. The source says: NCGC IMPase Assay Overview
Lithium has been widely used for the treatment of bipolar disorder. But lithium has a narrow therapeutic index and it can cause side effects such as thirst, weight gain, tremor, polyuria and memory problems. Although the mechanism for lithium action in treatment of bipolar disorder is still not fully understood, inhibition of inositol monophosphatase (IMPase) and the subsequent depletion of the inositol pool in living cells have been implicated as the primary therapeutic benefit of lithium therapy. Therefore, a selective IMPase inhibitor with reduced side effects might be a good drug candidate to replace lithium for the treatment of bipolar disorder. Several IMPase inhibitors have been discovered previously. However, they are not suitable for therapeutic use because of their poor cell membrane penetrability or oral bioavailability; the development of new cell-permeable IMPase inhibitors is needed.
IMPase catalyzes the hydrolysis of inositol-1-phosphate (IP1) to release free inositol. Binding of an agonist to a Gq coupled GPCR results in the activation of PLC, which hydrolyzes the PIP2 to form inositol-1,4,5-trisphosphate (IP3) and diacyl glycerol (DAG). While DAG activates protein kinase C (PKC), IP3 triggers the elevation of intracellular free Ca2+. The IP3 is very rapidly inactivated by hydrolysis to IP2, IP1 and then inositol by a series of enzymes including IMPase. Free inositols are used for synthesis of PI and thus start another inositol cycle.
To identify new cell-permeable IMPase inhibitors, we developed a cell-based IMPase assay in which the cytosolic IP1 is measured by a time-resolved fluorescence resonance energy transfer (TR-FRET) assay. In this assay, an IP1 specific antibody is used to detect the labeled IP1 tracer. When the cell lysate contains the elevated IP1 due to the inhibition of IMPase, the TR-FRET between the labeled antibody and IP1 tracer is disrupted resulting in a reduction in the total signal. Since the TR-FRET is used, this cell-based assay is a homogenous assay without cell wash and medium change that is suitable for assay miniaturization and HTS.
NCGC IMPase Assay Protocol Summary
A Chinese hamster ovary (CHO) cell line stably expressing the M1 receptor (CHO-M1) was obtained from ATCC and maintained in F-12 Kaighn's media (Invitrogen, Carlsbad, CA, 21127) supplemented with 10 % FBS, 100 units/ml penicillin, 100 ug/ml streptomycin and 250 ug/ml geneticin at 37C, 5% CO2 in a humidified atmosphere. Before the assay, aliquots of cells were frozen and stored at -135C. The assay was performed in 1536-well format. Data are reported for both the ratio of the two emission wavelengths, and also for the component 'donor' channel, Em2=620. […] AC50 values were determined from concentration-response data modeled with the standard Hill equation.
IMPase 1536-well assay protocol:
(1) Plate 4 ul/well (2000 cells) of cell suspension from frozen CHO-M1 Cells in white, tissue culture treated 1536-well plates that are cultured at 37C, 5 % CO2 for 16 to 30 hours.
(2) Add 23 nl/well of compound in DMSO solution. The final titration for each compound was between 0.6 nM and 46 uM.
(3) Add 1 ul of carbachol (50 uM in stimulation buffer containing10mM HEPES, 1mM CaCl2, 0.5 mM MgCl2, 4.2 mM KCl, 146 mM NaCl, 5.5 mM glucose, 50mM LiCl, pH 7.4.
(4) Incubation at 37C, 5 % CO2 for 30 min.
(5) Add 1 ul/well of d2-conjugated IP1 (d2-IP1) and 1 ul/well of Eu+ cryptate conjugated anti-IP1 antibody (Eu+-Ab) prepared in the cell lysis buffer, both from the IP-One kit (Cisbio, MA).
(6) Incubate at room temperature for 10 minutes.
(7) Detect the assay plate (Ex = 320, Em1 =665 and Em2 620) in a ViewLux plate reader.
inositol monophosphatase, IMPase, IMPase inhibitor, lithium, bipolar disorder, IP-One, HTRF, qHTS, NIH roadmap, NCGC
Note: In the gene ID and protein GI references for this assay, rat IMPase is referenced instead of hampster as hamster accession numbers were not available.
Take `N#CC(C(=O)C12CC3CC(CC(C3)C1)C2)c1nc2ccccc2[nH]1` (stereo not given): the AC50 was 631 nM [rising, partial curve, poor fit].
In the case of `COc1ccc2c(c1)/C(=C/c1cnc[nH]1)C(=O)N2`, the AC50 is 12600 nM [falling, single point].
With `CCCN(CCC)CCc1ccc(O)c(O)c1`, the AC50 was 31.6 nM [falling, full curve, poor fit].
For the compound `Cc1ccc(OCC(=O)N2CCN(CC3CC4C=CC3C4)CC2)cc1` (stereo not given), the AC50 is 20000 nM [rising, single point].
Under `O=C(C1CCC(=O)N1C1CCCCC1)N1CCC2(CC1)OCCO2` (stereo not given) stands 316 nM [rising, partial curve, poor fit]; under `CCN(CC)CCCN=Cc1c(O)n(Cc2ccc(F)cc2)c(=O)[nH]c1=O`, 15.8 nM [rising, full curve, poor fit]; under `O=c1[nH]c(=O)n([C@H]2C[C@H](O)[C@H](CO)O2)cc1/C=C\Br`, 5010 nM [rising, single point].
As for `O=C(Nc1ccc2c(c1)OCO2)c1cn(Cc2ccc(F)cc2)nn1`, the concentration at half-maximal activity (AC50) is 12600 nM [rising, single point].
For the compound `Fc1ccc(C2=CCN(C(c3cccs3)c3nnnn3CCc3ccccc3)CC2)cc1` (stereo not given), the AC50 is 31600 nM [rising, single point].
`O=c1[nH]c(=O)n(Cc2ccco2)c(O)c1C=NCc1cccs1`: the AC50 is 3160 nM [rising, single point].
Regarding `Cc1ccccc1NC(=O)c1c(NC(=O)c2ccccc2F)sc2c1CCC(C)C2` (stereo not given), the half-maximal activity concentration (AC50) is 1780 nM [falling, partial curve, poor fit].
With `O=c1c2ccccc2nc(CSc2ncnc3nc[nH]c23)n1-c1ccccc1`, the concentration at half-maximal activity (AC50) is 25100 nM [rising, single point].
`CCCn1nnc(NC(=O)COc2ccc(CC)cc2)n1`: the concentration at half-maximal activity (AC50) was 20 nM [falling, full curve].
Turning to `COc1ccc(OCC(=O)N2CCN(C(C)C)CC2)cc1`, the AC50 is 5620 nM [rising, single point].
With `CCOc1ccc(Cn2c(=O)oc3ccc(C)cc32)cc1OC`, the AC50 is 25.1 nM [rising, full curve, poor fit].
As for `CC(C)C(=O)c1cn(Cc2ccc(C#N)cc2)c2ccccc12`, the figure is 12600 nM [falling, single point]; as for `CCOc1ccc(C2SCC(=O)Nc3c2c(=O)[nH]n3C2CCCCCC2)cc1` (stereo not given), 12.6 nM [falling, full curve]; as for `COc1cc(/C=C2\C(=O)NC(=O)N(c3ccccc3)C2=O)cc(OC)c1O`, 3160 nM [falling, partial curve, poor fit].
With `CC(=O)N1CCN(c2ccc(N=Cc3c(O)n(Cc4ccccc4)c(=O)[nH]c3=O)cc2)CC1`, the concentration at half-maximal activity (AC50) was 251 nM [falling, full curve].
Under `COc1ccccc1CN1CCN(C(=O)Cc2ccccc2)CC1` stands 31.6 nM [rising, full curve, poor fit]; under `O=c1c2ccccc2nc(CSc2ncnc3nc[nH]c23)n1-c1ccccc1Cl`, 31600 nM [falling, single point]; under `Cc1ccc(C)c(C2(O)CC(C)N(C)CC2C)c1` (stereo not given), 794 nM [rising, full curve].
`Oc1ccc(CC2CC3CCN2CC3)cc1O` (stereo not given): the concentration at half-maximal activity (AC50) is 5.01 nM [falling, full curve, poor fit].
With `CC(C)(C)c1ccc(O)c(CN2CCN(c3ccccc3)CC2)c1`, the concentration at half-maximal activity (AC50) was 31600 nM [rising, single point].
For the compound `c1ccc(-c2nnc(SCc3nc4ccccc4[nH]3)o2)cc1`, the concentration at half-maximal activity (AC50) is 3160 nM [falling, full curve, poor fit].
Take `CCCCCn1c(=O)c(C(=O)Nc2c(C)n(C)n(-c3ccccc3)c2=O)c(O)c2ccccc21`: the half-maximal activity concentration (AC50) was 6310 nM [rising, single point].
`CC1(C)N(O)C(c2ccc(C(=O)O)cc2)=[N+]([O-])C1(C)C`: the half-maximal activity concentration (AC50) was 2 nM [falling, full curve, poor fit].
Turning to `COc1ccc(CCNC(=O)COC(=O)Cc2ccccc2)cc1`, the AC50 is 10000 nM [rising, single point].
Turning to `O=C(CN1CCOCC1)c1ccc2cc[nH]c2c1`, the concentration at half-maximal activity (AC50) is 7080 nM [falling, partial curve, poor fit].
On to `CCCc1[nH]nc2c1C1(C(=O)N(CC(N)=O)c3ccccc31)C(C(=O)OC)=C(N)O2` (stereo not given), for which the half-maximal activity concentration (AC50) is 3.98 nM [rising, full curve, poor fit].
Under `CCN(CC)Cc1c[nH]c2ccccc12` stands 15800 nM [falling, single point]; under `CC[C@@]1(O)C(=O)OCc2c1cc1n(c2=O)Cc2cc3ccccc3nc2-1`, 316 nM [rising, full curve, poor fit].
On to `Cn1cc(CCC(=O)N2CCC3(CC2)OCCO3)c2ccccc21`, for which the concentration at half-maximal activity (AC50) is 39800 nM [falling, partial curve, poor fit].
Take `CCOc1ccc(N2C(=O)c3ccccc3C2=O)cc1`: the half-maximal activity concentration (AC50) was 100 nM [falling, partial curve, poor fit].
On to `CC(=NCCCO)c1c(O)n(Cc2ccccc2)c(=O)[nH]c1=O`, for which the AC50 was 1000 nM [falling, full curve].
Under `COc1ccc(P2(=O)Nc3ccccc3N2)cc1` stands 3980 nM [falling, single point]; under `CC(=O)Nc1ccccc1OP1(=O)COc2ccccc2OC1`, 1260 nM [falling, single point].
As to `Cc1cc(Cl)ccc1OCC(=O)O`, the AC50 was 79.4 nM [rising, full curve, poor fit].
Consider `CN(C)C(=O)Oc1ccc(C(=O)c2ccccc2)cc1`, for which the half-maximal activity concentration (AC50) was 3980 nM [falling, single point].
As for `C[N+]1(C)[C@@H]2CC[C@H]1CC(OC(=O)[C@@H](CO)c1ccccc1)C2` (stereo not given in full), the figure is 10 nM [falling, full curve, poor fit]; as for `CN(C)P1(N(C)C)=Nc2c(c(N)nn2C)C(c2ccccc2)=N1`, 631 nM [falling, single point].
Under `COc1ccc2c(c1)c(C(=O)CN1CCC3(CC1)OCCO3)c(C)n2Cc1ccccc1` stands 20 nM [rising, full curve, poor fit].
As to `O=c1c2cc(Cl)cc(Cl)c2nc(CN2CCOCC2)n1-c1ccccc1F`, the half-maximal activity concentration (AC50) was 15800 nM [rising, single point].
In the case of `Cc1ccc(N2C(=O)/C(=C/c3ccc(CN(CCC#N)S(C)(=O)=O)o3)C(=O)NC2=S)cc1C`, the AC50 is 3160 nM [falling, partial curve, poor fit].
As for `CCOC(=O)C1=C(C)N(C)C2(C)CC1c1ccccc1O2` (stereo not given), the figure is 794 nM [falling, single point]; as for `CCOC(=O)c1oc2ccccc2c1NC(=O)CN1CCN(C)CC1`, 12600 nM [falling, single point]; as for `CN1CCc2nc3ccc(F)cc3c(C(N)=O)c2C1`, 100 nM [falling, partial curve].
As for `CCN1C[C@]2(C)CC[C@@H](O)[C@]34[C@@H]5CC6[C@@H](OC)C[C@@](O)([C@H]5[C@@H]6O)[C@@H](C[C@@H]23)[C@H]14`, the figure is 31600 nM [rising, single point]; as for `COc1cc2c(cc1OC)-c1c(O)c(OC)cc3c1[C@H](C2)N(C)CC3`, 20000 nM [falling, partial curve]; as for `O=C(C1CCN(CC2CCCCC2)CC1)N1CCCC1`, 158 nM [rising, full curve, poor fit].
Regarding `CNCCc1ccc(O)c(O)c1`, the AC50 is 25.1 nM [falling, full curve, poor fit].
For the compound `COC(=O)C(C#N)C(c1cccnc1)c1c(C)[nH][nH]c1=O` (stereo not given), the AC50 was 6310 nM [rising, single point].
In the case of `CCOc1ccccc1CN(CCc1ccc2c(c1)OCO2)Cc1ccc(CC)cc1`, the AC50 is 50.1 nM [falling, full curve, poor fit].
With `COc1ccc(NC(=O)c2ccc(COCC(F)(F)C(F)F)cc2)cc1`, the AC50 is 3980 nM [falling, full curve].
`CC(C)c1c(CN(C)[C@@H](C)Cc2ccccc2)n(C)n(-c2ccccc2)c1=O`: the half-maximal activity concentration (AC50) was 200 nM [falling, full curve, poor fit].
Turning to `CCN(CC)C(=O)CN1CCN(c2ccccc2F)CC1`, the concentration at half-maximal activity (AC50) was 63.1 nM [rising, full curve, poor fit].
Turning to `CN(C)P(=O)(C(Cl)=C(N1CCCCC1)N1CCCCC1)N(C)C`, the AC50 is 6310 nM [rising, single point].
As to `COc1cc(C(=O)NC2CC3CCCC(C2)N3CC(=O)Nc2ccccc2)cc(OC)c1OC` (stereo not given), the concentration at half-maximal activity (AC50) is 2820 nM [falling, single point].
For the compound `CC(C)NC[C@H](O)c1ccc(N)c(C#N)c1`, the AC50 was 31600 nM [falling, single point].
As to `O=C(Nc1ccc2oc(-c3cccnc3)nc2c1)c1ccc(-c2cccc(Cl)c2)o1`, the AC50 is 31600 nM [rising, single point].
Take `CN(C)C1C(=O)C(C(N)=O)=C(O)[C@@]2(O)C(=O)C3=C(O)c4c(O)cccc4[C@@](C)(O)C3C[C@@H]12` (stereo not given in full): the AC50 was 20000 nM [rising, partial curve, poor fit].
`CC1(C)CC(=O)C2=C(C1)NC(=O)C21C(C(=O)OC(C)(C)C)=C(N)Oc2ccc(Br)cc21` (stereo not given): the AC50 was 1580 nM [falling, partial curve].
Regarding `CN1Cc2c(ccc3c2OCO3)[C@@H]2[C@@H](O)Cc3cc4c(cc3[C@@H]21)OCO4`, the AC50 was 15800 nM [falling, single point].
With `O=c1[nH]c(=O)n(CCC2=CCCCC2)c(O)c1C=NCCCn1ccnc1`, the AC50 was 79.4 nM [rising, full curve, poor fit].
As for `CCOc1ccc(OCC)c(NC(=O)CN2CCN(c3ccc(C)cc3C)CC2)c1`, the figure is 50.1 nM [falling, full curve].
